Experimental data: PubChem BioAssay AID504808 (Drosophila RNAi Screening Center, 2011)
In all, the deposit lists about 21,000 reagents; this is an unselected part of those with a known target gene and a result. Over the whole deposit, 18 (0.084%) got an active call. 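Raw counts without plate normalisation, one of two replicates; the ratio scores behind the calls were not deposited.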 Unmarked entries are inactive. Reagents against one gene are numbered here. A plus sign joins genes that one reagent is predicted to hit. No sequences are given here. Not given: the amount of reagent, the time to read-out.

Purpose: 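Chromatin factors that keep E2F targets switched off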 (primary screen)
Cell system: Drosophila S2 cells
Knock-down reagent: long dsRNA against Drosophila genes
Detection: 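Dual luciferase plate measurements; E2F-specific signal taken as firefly over Renilla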
Reading the numbers: E2F firefly: higher = more E2F reporter activity; Renilla normaliser: higher = more normaliser reporter signal
Hit rule: 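a knock-down counted as active when the firefly/Renilla E2F signal rose above 50%, a threshold chosen arbitrarily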

comt gave E2F firefly, rep 1 = 90070; Renilla normaliser, rep 1 = 6782.
For beat-IIIb, the values are E2F firefly, rep 1 = 1.09e5; Renilla normaliser, rep 1 = 4496.
After knock-down of CG10383, the record shows E2F firefly, rep 1 = 72893; Renilla normaliser, rep 1 = 3389.
After knock-down of unk, the record shows E2F firefly, rep 1 = 66936; Renilla normaliser, rep 1 = 4366.
Knock-down of CG5916 gave: E2F firefly, rep 1 = 79210; Renilla normaliser, rep 1 = 4201.
With knock-down of Prim1, the screen gave E2F firefly, rep 1 = 97155; Renilla normaliser, rep 1 = 3695.
After knock-down of Dcr-2 the results were E2F firefly, rep 1 = 1.49e5; Renilla normaliser, rep 1 = 4603.
pnut scored E2F firefly, rep 1 = 2994; Renilla normaliser, rep 1 = 208.
For CG13850, the entry reads E2F firefly, rep 1 = 69361; Renilla normaliser, rep 1 = 4223.
After knock-down of CG7806, the record shows E2F firefly, rep 1 = 90495; Renilla normaliser, rep 1 = 3476.
Against PlexB, the entry reads E2F firefly, rep 1 = 1.19e5; Renilla normaliser, rep 1 = 6115.
Knock-down of Pbp95 gave: E2F firefly, rep 1 = 1.39e5; Renilla normaliser, rep 1 = 7036.
Depletion of CG14445 came out at: E2F firefly, rep 1 = 96977; Renilla normaliser, rep 1 = 5511.
With knock-down of Amnionless, the record shows E2F firefly, rep 1 = 1.58e5; Renilla normaliser, rep 1 = 5461.
CG8321 gave E2F firefly, rep 1 = 3036; Renilla normaliser, rep 1 = 198.
Silencing of Plc21C came out at: E2F firefly, rep 1 = 86999; Renilla normaliser, rep 1 = 3762.
Against CG34398 #1, the values are E2F firefly, rep 1 = 1.37e5; Renilla normaliser, rep 1 = 5575.
With knock-down of CG34398 #2, the record shows E2F firefly, rep 1 = 1.48e5; Renilla normaliser, rep 1 = 5125.
CG34398 #3 scored E2F firefly, rep 1 = 86926; Renilla normaliser, rep 1 = 3932.
CG34398 #4 gave E2F firefly, rep 1 = 1.61e5; Renilla normaliser, rep 1 = 4881.
After knock-down of CG34214, the screen gave E2F firefly, rep 1 = 85957; Renilla normaliser, rep 1 = 3539.
Depletion of Toll-7 gave: E2F firefly, rep 1 = 1.50e5; Renilla normaliser, rep 1 = 4890.
Knock-down of Nak came out at: E2F firefly, rep 1 = 85637; Renilla normaliser, rep 1 = 3500.
Depletion of PAN2 came out at: E2F firefly, rep 1 = 3549; Renilla normaliser, rep 1 = 133.
With knock-down of CG5377, the screen gave E2F firefly, rep 1 = 1.38e5; Renilla normaliser, rep 1 = 6746.
After knock-down of Sac1, the screen gave E2F firefly, rep 1 = 74300; Renilla normaliser, rep 1 = 3448.
Rh5 scored E2F firefly, rep 1 = 73456; Renilla normaliser, rep 1 = 3064.
Knock-down of botv gave: E2F firefly, rep 1 = 86067; Renilla normaliser, rep 1 = 3291.
Silencing of Det gave: E2F firefly, rep 1 = 1.24e5; Renilla normaliser, rep 1 = 6902.
After knock-down of CG17768 + LSm-4, the screen gave E2F firefly, rep 1 = 1.53e5; Renilla normaliser, rep 1 = 5387.
Depletion of CG6041 resulted in: E2F firefly, rep 1 = 1.12e5; Renilla normaliser, rep 1 = 5392.
CG31661 showed E2F firefly, rep 1 = 1.61e5; Renilla normaliser, rep 1 = 5536.
Knock-down of CG5810 came out at: E2F firefly, rep 1 = 1.18e5; Renilla normaliser, rep 1 = 5391.
Against Son, the entry reads E2F firefly, rep 1 = 1.29e5; Renilla normaliser, rep 1 = 6025.
For niki, the values are E2F firefly, rep 1 = 1.07e5; Renilla normaliser, rep 1 = 6206.
For CG9777, the values are E2F firefly, rep 1 = 1.61e5; Renilla normaliser, rep 1 = 6237.
